The entries are a selection whose mix differs from that of the whole data set. The data scatter; read single values as rough.

By UniProt entry, the sequences of proteins in these tests, tags left out. Where a name states a change or a piece, a line headed by the entry shows the natural chain unless it says otherwise.
UniProt P29372, whole entry, looked up: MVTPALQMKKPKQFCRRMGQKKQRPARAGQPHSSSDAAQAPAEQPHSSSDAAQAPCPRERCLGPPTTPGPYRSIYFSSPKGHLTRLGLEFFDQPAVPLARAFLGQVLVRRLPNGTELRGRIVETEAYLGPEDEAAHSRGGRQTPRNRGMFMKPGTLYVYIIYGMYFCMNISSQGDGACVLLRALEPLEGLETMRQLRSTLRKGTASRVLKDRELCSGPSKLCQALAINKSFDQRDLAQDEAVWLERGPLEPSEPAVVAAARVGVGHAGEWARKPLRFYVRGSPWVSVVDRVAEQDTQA
UniProt P23610: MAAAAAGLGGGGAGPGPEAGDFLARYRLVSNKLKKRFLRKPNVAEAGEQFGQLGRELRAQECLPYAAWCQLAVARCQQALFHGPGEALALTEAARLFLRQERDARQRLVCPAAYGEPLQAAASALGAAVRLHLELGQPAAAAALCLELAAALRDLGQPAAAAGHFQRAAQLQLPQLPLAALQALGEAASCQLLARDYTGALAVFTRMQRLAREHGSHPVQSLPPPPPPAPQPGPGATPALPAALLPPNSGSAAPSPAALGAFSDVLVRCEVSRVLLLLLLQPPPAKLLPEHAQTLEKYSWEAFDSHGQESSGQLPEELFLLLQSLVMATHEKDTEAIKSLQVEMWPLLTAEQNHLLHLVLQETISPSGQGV
UniProt P23528, whole entry, looked up: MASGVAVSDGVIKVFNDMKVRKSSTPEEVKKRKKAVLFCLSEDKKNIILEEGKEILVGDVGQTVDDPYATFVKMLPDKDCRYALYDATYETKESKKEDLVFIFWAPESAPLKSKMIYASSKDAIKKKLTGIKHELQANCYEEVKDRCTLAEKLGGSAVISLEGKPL
UniProt P17858: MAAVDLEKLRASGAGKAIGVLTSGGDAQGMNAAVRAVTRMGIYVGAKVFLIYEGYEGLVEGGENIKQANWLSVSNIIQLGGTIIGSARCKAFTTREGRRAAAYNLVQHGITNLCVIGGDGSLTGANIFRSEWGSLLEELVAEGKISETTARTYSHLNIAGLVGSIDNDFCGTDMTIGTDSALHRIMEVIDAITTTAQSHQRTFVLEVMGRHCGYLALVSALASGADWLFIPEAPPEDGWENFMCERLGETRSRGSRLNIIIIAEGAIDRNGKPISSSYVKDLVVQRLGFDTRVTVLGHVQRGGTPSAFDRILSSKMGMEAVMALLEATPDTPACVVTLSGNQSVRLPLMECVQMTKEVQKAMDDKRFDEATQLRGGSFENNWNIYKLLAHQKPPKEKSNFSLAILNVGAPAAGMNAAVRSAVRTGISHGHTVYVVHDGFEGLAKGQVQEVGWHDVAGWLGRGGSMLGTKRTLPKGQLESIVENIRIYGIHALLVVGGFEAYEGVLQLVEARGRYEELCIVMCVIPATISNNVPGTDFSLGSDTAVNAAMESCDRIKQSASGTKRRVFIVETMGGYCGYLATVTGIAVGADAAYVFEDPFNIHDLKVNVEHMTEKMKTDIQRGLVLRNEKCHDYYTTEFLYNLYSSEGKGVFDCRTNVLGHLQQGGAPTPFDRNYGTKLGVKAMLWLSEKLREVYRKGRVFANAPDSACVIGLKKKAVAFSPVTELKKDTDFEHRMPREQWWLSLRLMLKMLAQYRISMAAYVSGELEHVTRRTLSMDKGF
UniProt P28838: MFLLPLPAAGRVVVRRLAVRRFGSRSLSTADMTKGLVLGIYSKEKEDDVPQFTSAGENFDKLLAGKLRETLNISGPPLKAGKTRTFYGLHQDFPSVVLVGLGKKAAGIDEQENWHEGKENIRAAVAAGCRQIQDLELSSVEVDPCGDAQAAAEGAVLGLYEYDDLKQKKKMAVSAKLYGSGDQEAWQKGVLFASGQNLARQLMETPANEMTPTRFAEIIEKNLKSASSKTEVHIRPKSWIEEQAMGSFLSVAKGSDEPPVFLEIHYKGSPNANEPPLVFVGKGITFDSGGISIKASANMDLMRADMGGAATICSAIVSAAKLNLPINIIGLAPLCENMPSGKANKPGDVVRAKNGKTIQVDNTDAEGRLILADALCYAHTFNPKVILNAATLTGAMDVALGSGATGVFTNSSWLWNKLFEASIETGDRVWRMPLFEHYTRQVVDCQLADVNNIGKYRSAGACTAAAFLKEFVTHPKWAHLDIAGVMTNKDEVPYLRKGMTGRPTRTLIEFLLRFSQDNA
UniProt P25098: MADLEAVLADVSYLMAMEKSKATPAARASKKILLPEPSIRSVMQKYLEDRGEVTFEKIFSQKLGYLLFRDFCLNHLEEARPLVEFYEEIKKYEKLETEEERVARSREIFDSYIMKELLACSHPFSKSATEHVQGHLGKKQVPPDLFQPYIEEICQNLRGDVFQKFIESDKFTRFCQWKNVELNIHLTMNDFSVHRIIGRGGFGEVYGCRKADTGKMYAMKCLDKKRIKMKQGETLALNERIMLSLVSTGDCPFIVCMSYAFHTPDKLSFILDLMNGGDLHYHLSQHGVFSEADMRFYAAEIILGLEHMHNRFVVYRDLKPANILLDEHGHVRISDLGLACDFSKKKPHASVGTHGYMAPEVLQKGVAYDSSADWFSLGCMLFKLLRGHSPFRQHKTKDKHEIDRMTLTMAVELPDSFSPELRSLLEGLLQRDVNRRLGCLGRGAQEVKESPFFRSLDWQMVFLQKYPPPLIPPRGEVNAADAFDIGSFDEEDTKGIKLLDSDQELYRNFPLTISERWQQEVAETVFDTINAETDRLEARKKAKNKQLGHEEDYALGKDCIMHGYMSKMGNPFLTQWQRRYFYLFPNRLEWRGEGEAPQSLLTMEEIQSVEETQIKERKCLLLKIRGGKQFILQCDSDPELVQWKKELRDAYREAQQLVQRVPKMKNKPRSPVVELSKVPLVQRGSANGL
UniProt P22234: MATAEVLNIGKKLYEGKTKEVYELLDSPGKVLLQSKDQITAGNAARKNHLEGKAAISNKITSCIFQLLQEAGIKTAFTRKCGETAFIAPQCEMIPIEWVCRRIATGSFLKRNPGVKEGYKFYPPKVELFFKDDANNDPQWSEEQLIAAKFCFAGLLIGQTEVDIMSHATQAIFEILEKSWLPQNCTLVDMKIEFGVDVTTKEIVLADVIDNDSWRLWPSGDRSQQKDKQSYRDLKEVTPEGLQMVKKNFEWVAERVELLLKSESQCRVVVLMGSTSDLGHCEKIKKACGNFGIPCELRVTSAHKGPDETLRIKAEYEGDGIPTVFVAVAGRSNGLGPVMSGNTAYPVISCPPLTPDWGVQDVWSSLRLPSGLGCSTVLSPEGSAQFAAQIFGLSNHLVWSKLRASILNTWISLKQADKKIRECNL
UniProt P28340: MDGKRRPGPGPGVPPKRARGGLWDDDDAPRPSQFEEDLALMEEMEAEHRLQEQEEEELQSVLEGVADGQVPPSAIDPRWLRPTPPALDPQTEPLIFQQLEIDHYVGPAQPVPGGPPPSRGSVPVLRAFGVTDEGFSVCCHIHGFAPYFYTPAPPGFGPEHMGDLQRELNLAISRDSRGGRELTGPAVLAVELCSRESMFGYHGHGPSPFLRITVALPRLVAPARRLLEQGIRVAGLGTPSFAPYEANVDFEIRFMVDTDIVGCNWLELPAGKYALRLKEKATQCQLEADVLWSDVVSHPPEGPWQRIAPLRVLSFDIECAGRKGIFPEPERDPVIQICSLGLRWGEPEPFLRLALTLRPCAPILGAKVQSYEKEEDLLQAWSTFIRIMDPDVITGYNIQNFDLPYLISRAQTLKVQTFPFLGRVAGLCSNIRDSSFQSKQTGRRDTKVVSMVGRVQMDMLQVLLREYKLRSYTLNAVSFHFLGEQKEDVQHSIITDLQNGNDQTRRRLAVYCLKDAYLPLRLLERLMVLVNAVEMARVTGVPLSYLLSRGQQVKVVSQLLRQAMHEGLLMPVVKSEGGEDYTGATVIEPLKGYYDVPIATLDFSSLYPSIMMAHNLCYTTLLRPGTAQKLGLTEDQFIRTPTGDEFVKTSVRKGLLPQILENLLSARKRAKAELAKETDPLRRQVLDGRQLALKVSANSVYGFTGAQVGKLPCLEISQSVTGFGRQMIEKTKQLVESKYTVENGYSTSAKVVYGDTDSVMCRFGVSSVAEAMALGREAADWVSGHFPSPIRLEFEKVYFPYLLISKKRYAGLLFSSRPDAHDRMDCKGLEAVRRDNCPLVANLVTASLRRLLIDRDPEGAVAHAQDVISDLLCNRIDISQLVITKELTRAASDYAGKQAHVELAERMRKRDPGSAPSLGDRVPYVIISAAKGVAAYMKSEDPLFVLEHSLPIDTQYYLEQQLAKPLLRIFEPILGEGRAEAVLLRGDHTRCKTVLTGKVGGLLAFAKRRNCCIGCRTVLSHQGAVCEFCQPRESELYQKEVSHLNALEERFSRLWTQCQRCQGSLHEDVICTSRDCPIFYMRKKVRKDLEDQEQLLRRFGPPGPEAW
UniProt P20042, whole entry, looked up: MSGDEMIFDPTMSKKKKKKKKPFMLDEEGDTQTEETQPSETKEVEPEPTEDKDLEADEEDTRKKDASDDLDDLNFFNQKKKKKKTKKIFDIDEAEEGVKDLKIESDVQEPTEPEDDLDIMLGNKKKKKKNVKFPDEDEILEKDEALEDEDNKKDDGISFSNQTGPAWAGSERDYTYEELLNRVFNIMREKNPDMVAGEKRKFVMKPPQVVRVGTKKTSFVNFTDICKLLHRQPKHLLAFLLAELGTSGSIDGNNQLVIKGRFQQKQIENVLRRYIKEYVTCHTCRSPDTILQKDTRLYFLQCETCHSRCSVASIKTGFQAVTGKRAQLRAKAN
UniProt P26358: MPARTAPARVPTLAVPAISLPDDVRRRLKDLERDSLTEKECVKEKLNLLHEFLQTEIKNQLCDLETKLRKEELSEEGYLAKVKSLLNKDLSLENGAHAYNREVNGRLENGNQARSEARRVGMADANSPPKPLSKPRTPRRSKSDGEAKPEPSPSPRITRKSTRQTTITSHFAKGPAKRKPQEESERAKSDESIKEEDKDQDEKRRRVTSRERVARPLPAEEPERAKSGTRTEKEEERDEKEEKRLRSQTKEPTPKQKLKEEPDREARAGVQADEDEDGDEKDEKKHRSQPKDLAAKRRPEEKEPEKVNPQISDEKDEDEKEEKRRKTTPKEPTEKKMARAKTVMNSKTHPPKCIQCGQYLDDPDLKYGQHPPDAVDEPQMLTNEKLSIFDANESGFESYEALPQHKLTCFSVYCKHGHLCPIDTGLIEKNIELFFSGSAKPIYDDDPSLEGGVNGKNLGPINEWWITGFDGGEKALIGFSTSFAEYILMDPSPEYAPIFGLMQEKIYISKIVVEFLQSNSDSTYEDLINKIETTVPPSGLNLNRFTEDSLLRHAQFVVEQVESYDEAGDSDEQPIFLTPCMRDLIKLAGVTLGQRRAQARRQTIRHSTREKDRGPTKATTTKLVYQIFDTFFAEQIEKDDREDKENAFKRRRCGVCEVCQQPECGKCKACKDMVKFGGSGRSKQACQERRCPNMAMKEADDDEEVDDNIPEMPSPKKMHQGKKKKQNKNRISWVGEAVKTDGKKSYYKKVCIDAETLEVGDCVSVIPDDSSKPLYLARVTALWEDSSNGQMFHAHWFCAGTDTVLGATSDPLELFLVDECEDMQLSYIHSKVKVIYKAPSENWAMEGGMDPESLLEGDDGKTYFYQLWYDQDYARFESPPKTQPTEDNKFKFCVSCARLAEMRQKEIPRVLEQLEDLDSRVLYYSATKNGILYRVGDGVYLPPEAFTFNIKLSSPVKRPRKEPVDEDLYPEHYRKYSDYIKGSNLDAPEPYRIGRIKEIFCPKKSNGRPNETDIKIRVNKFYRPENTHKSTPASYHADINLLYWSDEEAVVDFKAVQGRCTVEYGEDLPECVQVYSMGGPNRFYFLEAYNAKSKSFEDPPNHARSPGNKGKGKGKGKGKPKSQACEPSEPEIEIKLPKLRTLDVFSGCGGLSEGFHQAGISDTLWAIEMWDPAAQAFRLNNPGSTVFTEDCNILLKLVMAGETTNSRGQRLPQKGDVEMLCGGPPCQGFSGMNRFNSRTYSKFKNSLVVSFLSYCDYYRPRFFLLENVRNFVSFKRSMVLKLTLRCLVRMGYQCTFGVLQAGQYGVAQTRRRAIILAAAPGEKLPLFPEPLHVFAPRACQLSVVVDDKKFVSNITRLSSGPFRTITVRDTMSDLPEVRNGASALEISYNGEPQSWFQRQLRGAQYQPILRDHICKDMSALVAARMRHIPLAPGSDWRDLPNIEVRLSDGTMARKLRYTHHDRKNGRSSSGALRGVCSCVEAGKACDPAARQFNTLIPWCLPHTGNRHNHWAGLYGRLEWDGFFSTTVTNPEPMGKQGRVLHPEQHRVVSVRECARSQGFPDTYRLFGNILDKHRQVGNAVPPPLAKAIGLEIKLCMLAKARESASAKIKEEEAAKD
UniProt P24534: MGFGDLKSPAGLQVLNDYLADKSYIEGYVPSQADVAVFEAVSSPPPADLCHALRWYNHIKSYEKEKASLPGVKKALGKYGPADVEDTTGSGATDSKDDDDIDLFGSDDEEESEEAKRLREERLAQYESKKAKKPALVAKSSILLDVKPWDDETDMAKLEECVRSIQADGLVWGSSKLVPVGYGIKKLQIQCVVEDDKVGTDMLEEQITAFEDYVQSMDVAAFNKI

Compound in this assay: COC(=O)/C=C/c1ccccc1 [methyl cinnamate]
As to the kind of experiment: log2 ratio of iodoacetamide-alkyne labeling of the cysteine site, DMSO over compound (competition); higher = stronger covalent engagement of the cysteine by the compound, active = 1 or more. The following applies: 500 µM; treatment time 1 h; system: HEK293T cell lysate. In outline:
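After 1 h at ambient temperature with vehicle or electrophile (500 µM), HEK293T lysate (2 mg/mL) was labelled for 1 h with iodoacetamide alkyne and clicked to sCIP-TMT reagents. Pooled samples were trypsin-digested overnight at 37 °C, streptavidin-enriched, acid-eluted and analysed by Orbitrap Eclipse LC-MS/MS with FAIMS, then quantified in FragPipe over three replicates with duplicate channels. A cysteine's log2 competition ratio is its mean control-channel over mean compound-channel reporter intensity. Cysteines quantified in only one replicate were not included.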
Consider MPG C61 (UniProt P29372), for which the “log2 ratio of iodoacetamide-alkyne labeling” value (shortened to “log2 ratio”) is inactive: 0.176. Turning to UniProt P25705_C294, the “log2 ratio” value was inactive: -0.0108. In the case of UniProt P23610_C62 it was inactive: 0.112; in that of CFL1 C39 (UniProt P23528), inactive: -0.189; in that of FECH C411 (UniProt P22830), inactive: 0.19. Consider PFKL C351 (UniProt P17858), for which the “log2 ratio” value is inactive: 0.0942. On to MCC C714 (UniProt P23508), for which the “log2 ratio” value was inactive: 0.306. In the case of CAD C252 (UniProt P27708) it was inactive: -0.248.

For the target LAP3 C335 (UniProt P28838), the “log2 ratio” value is inactive: -0.0128. Regarding FLNA C53 (UniProt P21333), the “log2 ratio” value is inactive: 0.249.

For RPL12 C17 (UniProt P30050), the “log2 ratio” value was inactive: 0.167. Take UniProt P25098_C340: the “log2 ratio” value is inactive: 0.0566. Consider PSMA1 C182 (UniProt P25786), for which the “log2 ratio” value was inactive: 0.0663.

As for PAICS C63 (UniProt P22234), the “log2 ratio” value is inactive: -0.129.

Turning to POLD1 C1061 (UniProt P28340), the “log2 ratio” value was inactive: 0.175.

In the case of MCM3 C119 (UniProt P25205), the “log2 ratio” value was inactive: 0.312. Take FECH C395 (UniProt P22830): the “log2 ratio” value was inactive: 0.267. As to VARS C720 (UniProt P26640), the “log2 ratio” value was inactive: -0.0345. EIF2S2 C226 (UniProt P20042): the “log2 ratio” value is inactive: 0.0103. With DNMT1 C580 (UniProt P26358), the “log2 ratio” value was inactive: -0.0432. In the case of EEF1B2 C50 (UniProt P24534) it was inactive: 0.00502; in that of UniProt P26367_C94, inactive: 0.142.
